In publication doi:10.1101/2021.04.08.436756:
Where two headings read alike, the source gives them in different places. These are yes or no findings as the source states them, for the method shown. In cells and extracts the contact can be indirect. Some results given as binding are weak or reduced against the parent protein; the word gives no strength. For part of these data: Where a sequence is shown, tags or fusion partners need not be part of it.

The chains behind the UniProt entries cited, without tags or fusion partners. Residues count along the entry.
UniProt P41586, residues 21-468: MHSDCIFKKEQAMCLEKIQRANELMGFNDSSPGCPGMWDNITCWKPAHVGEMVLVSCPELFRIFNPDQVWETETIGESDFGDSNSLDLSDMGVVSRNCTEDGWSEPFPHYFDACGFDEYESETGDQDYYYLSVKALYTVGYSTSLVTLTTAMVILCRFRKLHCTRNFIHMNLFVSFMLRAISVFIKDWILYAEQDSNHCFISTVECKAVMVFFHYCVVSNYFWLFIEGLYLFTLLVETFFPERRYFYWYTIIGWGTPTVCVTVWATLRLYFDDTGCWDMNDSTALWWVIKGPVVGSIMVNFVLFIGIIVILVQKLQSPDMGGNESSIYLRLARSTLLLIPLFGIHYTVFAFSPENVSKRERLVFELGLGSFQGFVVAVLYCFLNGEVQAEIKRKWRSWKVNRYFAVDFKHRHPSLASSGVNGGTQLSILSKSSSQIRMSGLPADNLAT
UniProt P34998, residues 24-415: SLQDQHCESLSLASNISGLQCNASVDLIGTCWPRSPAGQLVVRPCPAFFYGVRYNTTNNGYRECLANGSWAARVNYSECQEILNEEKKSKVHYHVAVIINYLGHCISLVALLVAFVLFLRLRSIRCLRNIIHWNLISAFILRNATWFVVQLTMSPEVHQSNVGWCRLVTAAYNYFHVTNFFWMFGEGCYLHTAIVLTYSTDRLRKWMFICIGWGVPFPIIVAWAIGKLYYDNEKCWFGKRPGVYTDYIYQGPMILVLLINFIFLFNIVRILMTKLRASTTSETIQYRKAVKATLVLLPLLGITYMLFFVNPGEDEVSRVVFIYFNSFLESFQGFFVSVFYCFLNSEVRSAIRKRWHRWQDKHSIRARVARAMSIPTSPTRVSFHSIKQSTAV
UniProt Q03431, residues 27-593: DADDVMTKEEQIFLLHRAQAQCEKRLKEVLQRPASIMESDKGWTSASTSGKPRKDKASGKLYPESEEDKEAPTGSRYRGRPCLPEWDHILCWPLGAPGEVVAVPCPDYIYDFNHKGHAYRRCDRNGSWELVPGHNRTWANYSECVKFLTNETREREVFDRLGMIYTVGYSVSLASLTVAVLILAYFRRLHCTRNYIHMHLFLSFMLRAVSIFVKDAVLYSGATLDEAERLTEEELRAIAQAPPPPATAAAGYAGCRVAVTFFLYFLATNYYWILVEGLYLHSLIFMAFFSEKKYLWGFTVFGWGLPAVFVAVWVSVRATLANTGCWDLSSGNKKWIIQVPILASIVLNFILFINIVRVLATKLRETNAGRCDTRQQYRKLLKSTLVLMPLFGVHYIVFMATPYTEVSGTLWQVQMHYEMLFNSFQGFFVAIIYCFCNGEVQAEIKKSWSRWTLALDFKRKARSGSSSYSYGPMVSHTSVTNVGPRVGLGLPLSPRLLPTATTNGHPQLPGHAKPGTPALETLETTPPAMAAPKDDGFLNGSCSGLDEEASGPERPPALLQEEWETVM
UniProt Q16602, residues 23-461: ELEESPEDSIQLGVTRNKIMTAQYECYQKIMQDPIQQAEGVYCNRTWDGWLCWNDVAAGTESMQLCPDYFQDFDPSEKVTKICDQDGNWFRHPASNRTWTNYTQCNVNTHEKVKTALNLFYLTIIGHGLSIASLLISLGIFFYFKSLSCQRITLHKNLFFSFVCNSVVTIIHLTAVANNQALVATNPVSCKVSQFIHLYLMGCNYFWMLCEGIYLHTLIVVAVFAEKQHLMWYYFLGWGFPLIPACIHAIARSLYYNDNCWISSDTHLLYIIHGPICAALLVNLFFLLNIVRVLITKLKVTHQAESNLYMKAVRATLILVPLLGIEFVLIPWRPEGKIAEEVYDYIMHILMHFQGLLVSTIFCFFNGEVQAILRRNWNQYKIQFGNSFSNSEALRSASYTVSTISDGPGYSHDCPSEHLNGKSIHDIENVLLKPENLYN
UniProt O60894, residues 27-148: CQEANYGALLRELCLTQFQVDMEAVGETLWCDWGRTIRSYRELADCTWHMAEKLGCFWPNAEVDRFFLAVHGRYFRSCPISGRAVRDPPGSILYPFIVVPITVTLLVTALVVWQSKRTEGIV
UniProt O60895, residues 43-175: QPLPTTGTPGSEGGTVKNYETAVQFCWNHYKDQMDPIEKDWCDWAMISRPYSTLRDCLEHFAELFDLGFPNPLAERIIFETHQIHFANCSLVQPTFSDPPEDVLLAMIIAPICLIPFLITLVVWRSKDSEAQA

Assays:
Assay in all cases: FRET or BRET
PAC1R-Rluc = PAC1R-Rluc (UniProt P41586)
CRFR2-Rluc = target: T1, CRFR2-Rluc (UniProt Q13324)
T1 sequence: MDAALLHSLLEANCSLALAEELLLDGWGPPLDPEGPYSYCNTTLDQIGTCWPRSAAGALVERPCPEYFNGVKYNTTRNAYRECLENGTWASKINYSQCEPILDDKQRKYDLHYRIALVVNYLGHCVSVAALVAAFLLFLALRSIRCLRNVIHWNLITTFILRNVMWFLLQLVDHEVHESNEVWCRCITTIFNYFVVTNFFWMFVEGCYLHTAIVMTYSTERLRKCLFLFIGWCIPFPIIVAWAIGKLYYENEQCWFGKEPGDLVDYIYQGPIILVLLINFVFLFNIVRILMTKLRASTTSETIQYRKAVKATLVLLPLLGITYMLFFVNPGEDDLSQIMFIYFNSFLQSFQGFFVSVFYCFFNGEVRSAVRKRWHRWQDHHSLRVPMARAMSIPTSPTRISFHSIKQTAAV

CRFR1-Rluc = CRFR1-Rluc (UniProt P34998)
myc-GIPR-Rluc [1] = target: T2, myc-GIPR-Rluc (UniProt P48546)
T2 sequence: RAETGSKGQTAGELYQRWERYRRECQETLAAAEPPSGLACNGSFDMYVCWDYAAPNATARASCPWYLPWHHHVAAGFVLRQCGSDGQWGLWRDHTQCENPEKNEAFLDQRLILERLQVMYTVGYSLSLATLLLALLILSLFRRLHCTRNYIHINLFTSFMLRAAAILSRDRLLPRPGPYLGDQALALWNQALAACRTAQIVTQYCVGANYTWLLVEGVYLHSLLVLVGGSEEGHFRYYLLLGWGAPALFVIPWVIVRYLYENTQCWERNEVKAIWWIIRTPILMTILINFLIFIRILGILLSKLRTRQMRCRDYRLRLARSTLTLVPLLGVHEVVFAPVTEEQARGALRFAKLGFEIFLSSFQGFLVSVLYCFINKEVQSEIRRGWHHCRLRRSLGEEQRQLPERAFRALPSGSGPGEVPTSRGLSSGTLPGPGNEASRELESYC

PTH1R-Rluc = PTH1R-Rluc (UniProt Q03431)
Nluc-GIPR [2] = target: T3, Nluc-GIPR (UniProt P48546)
T3 sequence: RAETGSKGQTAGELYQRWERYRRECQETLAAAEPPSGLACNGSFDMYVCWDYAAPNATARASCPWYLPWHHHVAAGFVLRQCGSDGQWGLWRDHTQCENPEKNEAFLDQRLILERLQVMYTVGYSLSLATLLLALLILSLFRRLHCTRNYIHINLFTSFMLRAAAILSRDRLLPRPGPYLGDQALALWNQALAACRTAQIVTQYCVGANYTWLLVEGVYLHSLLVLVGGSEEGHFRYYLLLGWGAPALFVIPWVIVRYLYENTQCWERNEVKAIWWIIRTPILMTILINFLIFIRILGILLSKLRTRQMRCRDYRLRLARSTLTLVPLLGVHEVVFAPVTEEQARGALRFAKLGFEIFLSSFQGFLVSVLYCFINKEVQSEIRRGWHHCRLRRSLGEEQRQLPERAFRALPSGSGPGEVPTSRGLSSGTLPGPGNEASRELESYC

Nluc-GIPR [3] = target: T3, Nluc-GIPR; remark: listed apart in the source
Nluc-CLR [4] = target: Nluc-CLR (UniProt Q16602)
Nluc-CLR [5] = target: Nluc-CLR (UniProt Q16602); remark: listed apart in the source
Nluc-GIPR [6] = target: T3, Nluc-GIPR; remark: listed apart in the source
myc-GIPR-Rluc, P48546 [7] = target: T4, myc-GIPR-Rluc, P48546; settings: remark: other sources report otherwise
T4 chain: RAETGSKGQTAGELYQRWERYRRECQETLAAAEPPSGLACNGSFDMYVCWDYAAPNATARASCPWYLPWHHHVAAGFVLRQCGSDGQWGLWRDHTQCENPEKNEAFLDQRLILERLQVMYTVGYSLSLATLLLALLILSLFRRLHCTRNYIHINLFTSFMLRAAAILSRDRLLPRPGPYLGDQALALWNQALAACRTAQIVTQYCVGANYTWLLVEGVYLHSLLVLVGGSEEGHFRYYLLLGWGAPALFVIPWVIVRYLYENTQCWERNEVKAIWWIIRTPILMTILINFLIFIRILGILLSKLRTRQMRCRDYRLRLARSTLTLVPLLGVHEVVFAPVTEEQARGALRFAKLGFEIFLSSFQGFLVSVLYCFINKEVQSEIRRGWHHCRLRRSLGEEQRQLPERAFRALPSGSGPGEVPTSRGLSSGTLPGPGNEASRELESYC

myc-GIPR-Rluc, P48546 [8] = target: T4, myc-GIPR-Rluc, P48546; settings: remark: other sources report otherwise
myc-GIPR-Rluc [9] = target: T2, myc-GIPR-Rluc; remark: listed apart in the source

Question: RAMP1-YFP (from UniProt O60894 27-148) was tested. Which binding (PAC1R-Rluc) did it give?
Answer: Its binding is “no binding”.

Question: What about the binding (CRFR2-Rluc) of the same molecule?
Answer: The binding was “binds weakly”.

Question: What about the binding (CRFR1-Rluc) of the same molecule?
Answer: Its binding is “no binding”.

Question: What about the binding (myc-GIPR-Rluc [1]) of the same molecule?
Answer: The binding was “binds”.

Question: What about the binding (PTH1R-Rluc) of the same molecule?
Answer: Its binding is “no binding”.

Question: RAMP2-YFP (from UniProt O60895 43-175) was tested. Which binding (myc-GIPR-Rluc [1]) did it give?
Answer: Its binding is “binds”.

Question: What does the source list for SNAP-RAMP1 (from UniProt O60894 27-148)?
Answer: binding (Nluc-GIPR [2]): binds; binding (Nluc-GIPR [3]): binds

Question: What does the source list for SNAP-RAMP2 (from UniProt O60895 43-175)?
Answer: binding (Nluc-GIPR [2]): binds; binding (Nluc-GIPR [3]): binds

B1: SNAP-RAMP3 (protein, UniProt O60896 24-148)
chain: RAGGCNETGMLERLPLCGKAFADMMGKVDVWKWCNLSEFIVYYESFTNCTEMEANVVGCYWPNPLAQGFITGIHRQFFSNCTVDRVHLEDPPDEVLIPLIVIPVVLTVAMAGLVVWRSKRTDTLL
modifications: SNAP-Surface Alexa Fluor 488 on the SNAP tag
Question: Which binding (Nluc-CLR [4]) does the source give for B1 here?
Answer: The binding was “binds”.

Question: What about the binding (Nluc-GIPR [2]) of the same molecule?
Answer: The binding was “binds”.

Question: What about the binding (Nluc-CLR [5]) of the same molecule?
Answer: The binding was “binds”.

Question: What about the binding (Nluc-GIPR [6]) of the same molecule?
Answer: The binding was “binds”.

B2: SNAP-RAMP3ΔPDZ (protein, UniProt O60896)
chain: RAGGCNETGMLERLPLCGKAFADMMGKVDVWKWCNLSEFIVYYESFTNCTEMEANVVGCYWPNPLAQGFITGIHRQFFSNCTVDRVHLEDPPDEVLIPLIVIPVVLTVAMAGLVVWRSKRT
modifications: SNAP-Surface Alexa Fluor 488 on the SNAP tag
Question: B2 was tested. Which binding (Nluc-GIPR [6]) did it give?
Answer: Its binding is “binds”.

B3: β-arrestin-1-YFP, P49407 1-418 (protein)
chain: MGDKGTRVFKKASPNGKLTVYLGKRDFVDHIDLVDPVDGVVLVDPEYLKERRVYVTLTCAFRYGREDLDVLGLTFRKDLFVANVQSFPPAPEDKKPLTRLQERLIKKLGEHAYPFTFEIPPNLPCSVTLQPGPEDTGKACGVDYEVKAFCAENLEEKIHKRNSVRLVIRKVQYAPERPGPQPTAETTRQFLMSDKPLHLEASLDKEIYYHGEPISVNVHVTNNTNKTVKKIKISVRQYADICLFNTAQYKCPVAMEEADDTVAPSSTFCKVYTLTPFLANNREKRGLALDGKLKHEDTNLASSTLLREGANREILGIIVSYKVKVKLVVSRGGLLGDLASSDVAVELPFTLMHPKPKEEPPHREVPENETPVDTNLIELDTNDDDIVFEDFARQRLKGMKDDKEEEEDGTGSPQLNNR
Question: Which binding (myc-GIPR-Rluc, P48546 [7]) does the source give for B3 here?
Answer: The binding was “binds”.

Question: What about the binding (myc-GIPR-Rluc, P48546 [8]) of the same molecule?
Answer: Its binding is “binds”.

B4: RAMP3-YFP (protein, UniProt O60896 24-148)
chain: RAGGCNETGMLERLPLCGKAFADMMGKVDVWKWCNLSEFIVYYESFTNCTEMEANVVGCYWPNPLAQGFITGIHRQFFSNCTVDRVHLEDPPDEVLIPLIVIPVVLTVAMAGLVVWRSKRTDTLL
Question: B4 was tested. Which binding (myc-GIPR-Rluc [9]) did it give?
Answer: Its binding is “binds”.
